Where a chain is given by its changes, count along the chain named. These are yes or no findings as the source states them, for the method shown. For some of these results: A result given as binding can be weak or reduced; the word gives no strength. For some of these results: Tags and fused reporters may be left off the sequences shown. For some of these results: Binding seen in cells or lysates may run through a third protein.
How the values were obtained:
Cdc53-Ha (S. cerevisiae) [1] = target: T1, Cdc53-Ha (S. cerevisiae) (UniProt Q12018); assay: co-IP; whole cell extracts of YL1C strains grown in YPD to OD600 1.0; dynabeads protein G with antibody; IP lysis buffer 50 mM HEPES-KOH pH 7.5, 140 mM NaCl, 1 mM EDTA, 1% Triton X-100; for Cdc15/Tem1 in YL1C, YL1C Δamn1 and with overexpressed Amn1^368D or Amn1^368V
T1 sequence: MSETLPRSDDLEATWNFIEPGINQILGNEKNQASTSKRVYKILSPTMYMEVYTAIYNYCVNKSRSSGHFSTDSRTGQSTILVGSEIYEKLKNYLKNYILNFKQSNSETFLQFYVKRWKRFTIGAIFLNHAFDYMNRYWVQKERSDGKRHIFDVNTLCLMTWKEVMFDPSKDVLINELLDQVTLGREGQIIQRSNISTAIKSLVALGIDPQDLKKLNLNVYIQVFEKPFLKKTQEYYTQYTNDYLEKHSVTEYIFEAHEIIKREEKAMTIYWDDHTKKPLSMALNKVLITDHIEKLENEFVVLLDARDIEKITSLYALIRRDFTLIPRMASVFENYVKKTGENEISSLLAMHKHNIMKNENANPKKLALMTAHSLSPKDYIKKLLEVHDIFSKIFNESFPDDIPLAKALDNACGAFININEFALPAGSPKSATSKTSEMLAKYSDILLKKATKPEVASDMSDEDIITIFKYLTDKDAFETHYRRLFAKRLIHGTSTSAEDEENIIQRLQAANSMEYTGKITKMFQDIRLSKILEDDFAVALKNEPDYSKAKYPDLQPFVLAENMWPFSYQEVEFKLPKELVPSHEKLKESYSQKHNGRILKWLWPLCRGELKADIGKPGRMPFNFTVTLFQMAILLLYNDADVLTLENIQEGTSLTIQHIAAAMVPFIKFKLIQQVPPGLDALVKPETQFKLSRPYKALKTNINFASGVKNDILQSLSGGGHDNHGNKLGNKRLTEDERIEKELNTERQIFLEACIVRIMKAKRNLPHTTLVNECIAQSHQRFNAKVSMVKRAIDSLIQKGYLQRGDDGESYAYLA

Chains of the proteins cited; added tags and fusions are not shown. Lines headed by an entry give the natural chain unless they say otherwise; changes in a name come on top.
UniProt P52286: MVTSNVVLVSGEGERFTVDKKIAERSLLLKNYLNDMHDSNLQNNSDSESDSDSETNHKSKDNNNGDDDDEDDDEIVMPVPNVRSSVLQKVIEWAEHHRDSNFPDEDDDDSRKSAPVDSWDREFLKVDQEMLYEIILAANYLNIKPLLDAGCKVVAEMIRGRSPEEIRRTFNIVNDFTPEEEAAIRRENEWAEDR
UniProt P38285: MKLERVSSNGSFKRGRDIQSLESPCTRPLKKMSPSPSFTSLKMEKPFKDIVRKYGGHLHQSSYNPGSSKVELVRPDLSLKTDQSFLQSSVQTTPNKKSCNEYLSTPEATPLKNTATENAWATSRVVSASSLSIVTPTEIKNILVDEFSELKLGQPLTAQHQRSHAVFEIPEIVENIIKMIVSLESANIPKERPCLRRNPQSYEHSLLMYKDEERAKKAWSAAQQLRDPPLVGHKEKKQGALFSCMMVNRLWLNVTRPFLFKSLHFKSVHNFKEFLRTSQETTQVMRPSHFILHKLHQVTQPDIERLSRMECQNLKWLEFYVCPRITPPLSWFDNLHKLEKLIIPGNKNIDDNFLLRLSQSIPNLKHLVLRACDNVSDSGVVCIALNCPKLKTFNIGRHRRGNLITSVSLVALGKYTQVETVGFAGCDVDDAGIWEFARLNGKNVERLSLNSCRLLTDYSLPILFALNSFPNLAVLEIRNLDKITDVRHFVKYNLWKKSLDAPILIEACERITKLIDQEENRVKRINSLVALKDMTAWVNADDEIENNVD

Tem1 (S. cerevisiae) = target: T2, Tem1 (S. cerevisiae) (UniProt P38987); assay: as above
T2 sequence: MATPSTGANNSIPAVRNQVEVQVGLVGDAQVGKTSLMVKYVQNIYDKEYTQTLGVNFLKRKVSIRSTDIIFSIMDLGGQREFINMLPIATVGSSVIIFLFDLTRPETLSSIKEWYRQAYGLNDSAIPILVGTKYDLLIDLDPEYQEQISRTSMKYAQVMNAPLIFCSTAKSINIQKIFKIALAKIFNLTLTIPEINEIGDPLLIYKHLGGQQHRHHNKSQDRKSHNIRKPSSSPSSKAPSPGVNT

Skp1-Myc (S. cerevisiae) [2] = target: Skp1-Myc (S. cerevisiae) (UniProt P52286); assay: as above
Cdc53-Ha (S. cerevisiae) [3] = target: T1, Cdc53-Ha (S. cerevisiae); assay: SEC; cell lysate of YL1C passed over Superdex 200 in cold PBS (4°C), 0.5 ml/min, 0.5 ml fractions analysed by western blot
Skp1-Myc (S. cerevisiae) [4] = target: Skp1-Myc (S. cerevisiae) (UniProt P52286); assay: as above
[5] = target: T3, Myc-Ace2 expressed from the GAL promoter in YL1C (S. cerevisiae) (UniProt P21192); assay: co-IP; Myc-Ace2 (GAL promoter, galactose-induced, MG132 20 uM for one hour) precipitated from 50 mg whole cell extract with anti-Myc on dynabeads protein G, 1 hour at room temperature; IP lysis buffer 50 mM HEPES-KOH pH 7.5, 140 mM NaCl, 1 mM EDTA, 1% Triton X-100; blots with anti-Myc and anti-Flag
T3 sequence: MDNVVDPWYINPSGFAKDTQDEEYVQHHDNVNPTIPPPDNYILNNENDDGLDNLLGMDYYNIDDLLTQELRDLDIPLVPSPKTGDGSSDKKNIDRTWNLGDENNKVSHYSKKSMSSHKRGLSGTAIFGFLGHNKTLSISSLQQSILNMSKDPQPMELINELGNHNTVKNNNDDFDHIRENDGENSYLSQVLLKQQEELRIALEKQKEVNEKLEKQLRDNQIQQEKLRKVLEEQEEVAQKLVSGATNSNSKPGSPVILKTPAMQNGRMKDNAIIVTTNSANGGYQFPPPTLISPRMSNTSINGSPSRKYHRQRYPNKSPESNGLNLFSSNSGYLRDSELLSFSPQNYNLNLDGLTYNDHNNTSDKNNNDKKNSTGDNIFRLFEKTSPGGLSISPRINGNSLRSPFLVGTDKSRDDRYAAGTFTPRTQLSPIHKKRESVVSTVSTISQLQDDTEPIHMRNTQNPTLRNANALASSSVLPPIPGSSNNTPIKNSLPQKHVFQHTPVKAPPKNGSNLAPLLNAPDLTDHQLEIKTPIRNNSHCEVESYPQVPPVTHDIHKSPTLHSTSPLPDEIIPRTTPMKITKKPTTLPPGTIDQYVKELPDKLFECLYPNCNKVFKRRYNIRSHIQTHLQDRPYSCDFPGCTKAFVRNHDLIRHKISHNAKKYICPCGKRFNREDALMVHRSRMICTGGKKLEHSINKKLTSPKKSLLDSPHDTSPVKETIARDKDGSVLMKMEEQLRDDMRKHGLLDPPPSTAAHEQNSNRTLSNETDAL

[6] = target: T4, Ace2* (11-residue domain … of Ace2 replaced by … of Swi5), Myc-tagged (S. cerevisiae) (UniProt P21192); assay: as above
T4 sequence: T3 sequence with L70I, R71N, D74N, I75L, V78G

Measured: binding

Amn1^368D from S. cerevisiae strain YL1C, Flag-tagged (from UniProt P38285)
no binding: [6]
binds: all other assays above

From publication PMC6181423
